No constants are given. Whether binding was seen depends on the method and setting. In cells and extracts the contact can be indirect. These calls come from enrichment with a bait or labelling near it, and not all partners need be listed.
Target: GFP-PEBP1 (human) (UniProt P30086)
Assay: affinity purification with mass spectrometry; proteins associated with PEBP1 in GFP-PEBP1-overexpressing cells; 201 candidate proteins

Sequences of proteins named here, by UniProt entry; tags and fusion partners are left off.
UniProt P30086: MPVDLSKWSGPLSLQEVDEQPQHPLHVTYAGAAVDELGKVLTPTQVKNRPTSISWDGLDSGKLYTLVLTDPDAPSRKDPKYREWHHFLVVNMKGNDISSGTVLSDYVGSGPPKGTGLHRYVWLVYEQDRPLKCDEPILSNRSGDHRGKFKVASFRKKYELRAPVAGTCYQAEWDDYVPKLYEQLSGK
UniProt P30153: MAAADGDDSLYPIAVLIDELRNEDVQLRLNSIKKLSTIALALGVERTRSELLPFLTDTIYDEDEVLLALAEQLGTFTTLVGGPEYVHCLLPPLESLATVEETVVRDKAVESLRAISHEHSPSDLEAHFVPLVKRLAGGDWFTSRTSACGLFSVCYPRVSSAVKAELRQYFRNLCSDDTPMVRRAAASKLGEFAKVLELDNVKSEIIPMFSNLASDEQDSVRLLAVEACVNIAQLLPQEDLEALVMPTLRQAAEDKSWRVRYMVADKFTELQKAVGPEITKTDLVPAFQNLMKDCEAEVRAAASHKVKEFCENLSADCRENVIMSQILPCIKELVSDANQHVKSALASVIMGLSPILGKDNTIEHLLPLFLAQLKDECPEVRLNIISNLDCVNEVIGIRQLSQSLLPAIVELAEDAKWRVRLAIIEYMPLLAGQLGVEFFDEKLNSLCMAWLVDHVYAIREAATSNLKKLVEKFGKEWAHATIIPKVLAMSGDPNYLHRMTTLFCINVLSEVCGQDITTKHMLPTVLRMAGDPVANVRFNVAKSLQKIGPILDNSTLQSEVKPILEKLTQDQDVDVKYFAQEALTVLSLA

In the case of “PPP2R1A, a subunit of phosphatase PP2A (from UniProt P30153 1-589)”, the binding is reported as “binds”.

From PMC11665560
